PubChem BioAssay AID651768 (National Center for Advancing Translational Sciences (NCATS), 2012)
Screen size: about 360,000 compounds; about 1,700 (0.47%) were called active. This list was built around the results that the source calls inconclusive (neither active nor inactive); the mix of calls is not that of the screen. Calls follow the shape of the dose curve; as a rule, active = well fitted inhibition curve with a large enough effect; inconclusive = small, poorly fitted or top-dose-only effect; inactive = no such curve, though single readings can be large or run the other way. Potencies of inconclusive entries are doubtful fits and often do not repeat.

Amino acid sequences for entries named in this document (tags omitted).
UniProt Q14191, whole entry, looked up: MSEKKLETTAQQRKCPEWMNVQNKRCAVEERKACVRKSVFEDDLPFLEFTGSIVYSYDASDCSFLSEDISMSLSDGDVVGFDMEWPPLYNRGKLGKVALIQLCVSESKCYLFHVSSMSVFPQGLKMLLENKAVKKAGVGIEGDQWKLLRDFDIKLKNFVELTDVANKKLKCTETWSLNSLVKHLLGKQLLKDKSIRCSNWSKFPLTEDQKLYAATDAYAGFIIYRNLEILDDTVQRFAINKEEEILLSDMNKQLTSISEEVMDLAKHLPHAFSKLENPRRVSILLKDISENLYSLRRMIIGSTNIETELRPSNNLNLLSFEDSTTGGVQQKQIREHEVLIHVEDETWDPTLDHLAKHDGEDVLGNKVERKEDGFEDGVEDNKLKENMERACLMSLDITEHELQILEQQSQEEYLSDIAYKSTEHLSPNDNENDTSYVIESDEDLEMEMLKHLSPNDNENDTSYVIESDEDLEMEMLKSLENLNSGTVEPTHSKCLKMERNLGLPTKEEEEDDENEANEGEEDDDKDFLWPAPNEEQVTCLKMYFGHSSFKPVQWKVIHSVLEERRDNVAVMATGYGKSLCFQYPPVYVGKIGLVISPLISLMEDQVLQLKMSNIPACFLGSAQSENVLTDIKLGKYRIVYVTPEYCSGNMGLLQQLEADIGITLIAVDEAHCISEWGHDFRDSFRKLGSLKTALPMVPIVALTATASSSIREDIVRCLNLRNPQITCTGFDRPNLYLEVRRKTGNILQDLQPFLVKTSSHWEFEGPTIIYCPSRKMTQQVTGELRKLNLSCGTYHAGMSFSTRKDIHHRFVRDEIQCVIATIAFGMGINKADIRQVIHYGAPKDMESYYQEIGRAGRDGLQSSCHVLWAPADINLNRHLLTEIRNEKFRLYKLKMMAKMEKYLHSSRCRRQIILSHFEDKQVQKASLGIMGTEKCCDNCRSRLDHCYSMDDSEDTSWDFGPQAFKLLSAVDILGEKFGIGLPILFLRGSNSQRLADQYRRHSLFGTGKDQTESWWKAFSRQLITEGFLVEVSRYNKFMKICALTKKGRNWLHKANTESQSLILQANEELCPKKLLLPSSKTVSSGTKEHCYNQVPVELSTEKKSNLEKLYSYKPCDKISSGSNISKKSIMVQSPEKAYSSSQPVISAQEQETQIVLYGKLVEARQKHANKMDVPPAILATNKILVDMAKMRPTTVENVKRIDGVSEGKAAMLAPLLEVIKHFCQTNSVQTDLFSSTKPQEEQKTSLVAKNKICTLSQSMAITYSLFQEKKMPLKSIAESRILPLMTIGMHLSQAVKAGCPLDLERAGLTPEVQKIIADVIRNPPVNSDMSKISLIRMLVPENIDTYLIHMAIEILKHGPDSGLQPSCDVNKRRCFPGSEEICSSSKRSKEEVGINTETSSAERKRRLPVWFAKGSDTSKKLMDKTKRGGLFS

These molecules were tested against Bifunctional 3'-5' exonuclease/ATP-dependent helicase WRN (Homo sapiens) (UniProt Q14191) (assay: qHTS for Inhibitors of WRN Helicase). Details: WRN helicase unwinding, fluorescent forked duplex, kinetic; activity change, negative = inhibition: at 114 µM (top of the series) unless noted.
Summary of the method: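 Kinetic red-fluorescence monitoring (525/598 nm) tracks WRN helicase activity after 100 nM fluorophore-quencher forked duplex and 2 mM ATP are added to 20 nM enzyme pretreated 15 min at room temperature with compound.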
% is scaled to controls: 0 for no effect and ±100 for the full control effect; potency is read from the fitted curve at half-maximal effect.
Also: nearly all actives have a fitted effect of over 55% in size.

SMILES	Potency	activity change, negative = inhibition
CC[C@H](C)/C=C(C)/C=C/C1=CC2=C(Cl)C(=O)[C@@](C)(OC(C)=O)C(=O)C2=CO1	active: 44.7 µM	–
O=[N+]([O-])/C=C/c1c(Cl)cccc1Cl	active: 31.6 µM	–
CCOC(=O)CSCCOc1ccc(C=C2C(=O)NC(=O)NC2=O)cc1OC	inconclusive: 50.1 µM [inhibitor, partial curve]	–
COc1cccc2c1C(=O)c1c(O)c3c(c(O)c1C2=O)CC(O)(C(C)=NO)CC3OC1CC(N)C(O)C(C)O1 (stereo not drawn)	active: 2.67 µM	–
Cn1cccc1/C=C1/C(=O)NC(=O)N(Cc2ccccc2)C1=O	inconclusive: 20 µM [inhibitor, partial curve]	–
Cc1ccc(N2C(=O)NC(=O)/C(=C/c3cnn(-c4ccc(C)cc4)c3)C2=O)cc1	–	inactive: -19.2%
COC(=O)C1C(C(=O)O)C2(Cl)C(Cl)=C(Cl)C1(Cl)C2(Cl)Cl (stereo not drawn)	–	inactive: -6.12%
CN1C(=O)C(=Cc2ccc(Sc3ccccc3)o2)C(=O)N(C)C1=O	inconclusive: 39.8 µM [inhibitor, single point]	–
Oc1ccc(Cl)cc1Sc1cc(Cl)ccc1O	inconclusive: 35.5 µM [inhibitor, partial curve]	–
COc1cc(Br)cc(CN2CCN(C)CC2)c1O	inconclusive: 14.1 µM [inhibitor, partial curve]	–
CCOC(=O)c1ccc(N=Cc2c(O)n(-c3ccc(OC)cc3)c(=S)[nH]c2=O)cc1	inconclusive: 0.189 µM [inhibitor, full curve]	–
Cc1cccc2c1=NC(=O)/C(=C/c1c(O)[nH]c(=O)[nH]c1=O)C=2	active: 50.1 µM	–
CCc1ccc(-n2c(O)c(/C=N/N3CCCCC3c3cccnc3)c(=O)[nH]c2=O)cc1 (stereo not drawn)	–	inactive: -7.15%
COC[C@H]1OC(=O)c2coc3c2[C@@]1(C)C1=C(C3=O)[C@@H]2CCC(=O)[C@@]2(C)C[C@H]1OC(C)=O	inconclusive: 14.1 µM [inhibitor, full curve, poor fit]	–
COc1cc(/C=C(/C)[N+](=O)[O-])ccc1OCc1ccccc1Cl	inconclusive: 56.2 µM [inhibitor, partial curve]	–
CCC1CN1P1(=O)OCC(C)([N+](=O)[O-])CO1 (stereo not drawn)	inconclusive: 22.4 µM [inhibitor, single point]	–
CCOC(=O)c1c(/N=C/c2c(O)n(-c3ccccc3F)c(=S)[nH]c2=O)sc2c1CCCC2	inconclusive: 50.1 µM [inhibitor, partial curve]	–
O=C1NC(=O)N(c2ccc(F)cc2)C(=O)/C1=C/c1ccsc1	inconclusive: 56.2 µM [inhibitor, partial curve]	–

3 structures out of the list, arranged by count of non-hydrogen atoms, largest number first.
SMILES	Potency	activity change, negative = inhibition
COc1cc(/C=C(/C)[N+](=O)[O-])ccc1OCc1ccccc1Cl	inconclusive: 56.2 µM [inhibitor, partial curve]	–
Cc1cccc2c1=NC(=O)/C(=C/c1c(O)[nH]c(=O)[nH]c1=O)C=2	active: 50.1 µM	–
O=[N+]([O-])/C=C/c1c(Cl)cccc1Cl	active: 31.6 µM	–
